Data on 5 molecules can be found in article PMC11703740, “Disparate molecular mechanisms in cardiac ryanodine receptor channelopathies” (Frontiers in Molecular Biosciences, 2024).

Test [1] concerns the target NT^R407I (human RyR2 residues 1-906, cMyc-tagged, R407I) (human) (UniProt Q92736). The experiment in a line: cross-linking; data not shown; tetramerization of NT^R407I compared to WT.
Test [2] addresses HA-tagged RyR2-CT (human RyR2 residues 3529-4967) (human) (UniProt Q92736). The experiment in a line: co-IP; data not shown; NT^R407I interaction with RyR2-CT compared to WT.
The target is the same in test [3]. The experiment in a line: co-IP; HEK293 cells co-expressing HA-RyR2-CT and cMyc-RyR2-NT constructs; lysate in 20 mM Tris, 150 mM NaCl, 0.5% CHAPS, pH 7.4; IP with Ab^HA (rabbit ab9110) on Protein A-Sepharose, 4 C, 2 h; blot with Ab^cMyc; non-immune rabbit IgG as negative control.
Test [4] deals with NT^WT (human RyR2 residues 1-906, cMyc-tagged) (human) (UniProt Q92736). Kind of test: cross-linking; data not shown; tetramerization of NT^R407I compared to WT.

Residue numbers refer to the chain shown, from its start. Numbers in names are those of the source. Results are given in words; binding and its absence hold for the method and conditions named. In cells and extracts the contact can be indirect. Some results given as binding are weak or reduced against the parent protein; the word gives no strength.

Consider “NT^R407I (human RyR2 residues 1-906, cMyc-tagged, R407I) (from UniProt Q92736 1-906) (domain or fragment)”, for which the binding entry in test [1] and in test [2] was “binds” in each case.

B1: NT^WT (human RyR2 residues 1-906, cMyc-tagged) (domain or fragment, UniProt Q92736 1-906, looked up)
chain: MADGGEGEDEIQFLRTDDEVVLQCTATIHKEQQKLCLAAEGFGNRLCFLESTSNSKNVPPDLSICTFVLEQSLSVRALQEMLANTVEKSEGQVDVEKWKFMMKTAQGGGHRTLLYGHAILLRHSYSGMYLCCLSTSRSSTDKLAFDVGLQEDTTGEACWWTIHPASKQRSEGEKVRVGDDLILVSVSSERYLHLSYGNGSLHVDAAFQQTLWSVAPISSGSEAAQGYLIGGDVLRLLHGHMDECLTVPSGEHGEEQRRTVHYEGGAVSVHARSLWRLETLRVAWSGSHIRWGQPFRLRHVTTGKYLSLMEDKNLLLMDKEKADVKSTAFTFRSSKEKLDVGVRKEVDGMGTSEIKYGDSVCYIQHVDTGLWLTYQSVDVKSVRMGSIQRKAIMHHEGHMDDGISLSRSQHEESRTARVIRSTVFLFNRFIRGLDALSKKAKASTVDLPIESVSLSLQDLIGYFHPPDEHLEHEDKQNRLRALKNRQNLFQEEGMINLVLECIDRLHVYSSAAHFADVAGREAGESWKSILNSLYELLAALIRGNRKNCAQFSGSLDWLISRLERLEASSGILEVLHCVLVESPEALNIIKEGHIKSIISLLDKHGRNHKVLDVLCSLCVCHGVAVRSNQHLICDNLLPGRDLLLQTRLVNHVSSMRPNIFLGVSEGSAQYKKWYYELMVDHTEPFVTAEATHLRVGWASTEGYSPYPGGGEEWGGNGVGDDLFSYGFDGLHLWSGCIARTVSSPNQHLLRTDDVISCCLDLSAPSISFRINGQPVQGMFENFNIDGLFFPVVSFSAGIKVRFLLGGRHGEFKFLPPPGYAPCYEAVLPKEKLKVEHSREYKQERTYTRDLLGPTVSLTQAAFTPIPVDTSQIVLPPHLERIREKLAENIHELWVMNKIELGWQYGP
notes: cardiac ryanodine receptor (RyR2), human, N-terminus residues 1-906; also called wild-type RyR2 N-terminus; RyR2-NT; source: HEK293, transiently transfected, in cell homogenate (cross-linking) or CHAPS-solubilized lysate (co-IP)
On to B1, for which the binding result in test [3], in test [4] and in test [2] was “binds” each time.

B2: NT^A77T (human RyR2 residues 1-906, cMyc-tagged, A77T) (domain or fragment, UniProt Q92736 1-906, looked up)
chain: B1 chain with A77T
notes: cardiac ryanodine receptor (RyR2), human, N-terminus residues 1-906 with the patient mutation A77T; Mutation made by site-directed mutagenesis in the NT^WT plasmid; a variant reported in patients; also called type II^inter variant; source: HEK293, transiently transfected, in cell homogenate (cross-linking) or CHAPS-solubilized lysate (co-IP)
Turning to B2, the binding entry in test [3] is listed as “binds”.

B3: NT^R169L (human RyR2 residues 1-906, cMyc-tagged, R169L) (domain or fragment, UniProt Q92736 1-906, looked up)
chain: B1 chain with R169L
notes: cardiac ryanodine receptor (RyR2), human, N-terminus residues 1-906 with the CPVT mutation R169L; Mutation made by site-directed mutagenesis in the NT^WT plasmid; a variant reported in patients; also called type I variant; source: HEK293, transiently transfected, in cell homogenate (cross-linking) or CHAPS-solubilized lysate (co-IP)
Turning to B3, the binding entry in test [3] is reported as “binds”.

B4: NT^G357S (human RyR2 residues 1-906, cMyc-tagged, G357S) (domain or fragment, UniProt Q92736 1-906, looked up)
chain: B1 chain with G357S
notes: cardiac ryanodine receptor (RyR2), human, N-terminus residues 1-906 with the CPVT mutation G357S; Mutation made by site-directed mutagenesis in the NT^WT plasmid; a variant reported in patients; also called type II^intra variant; source: HEK293, transiently transfected, in cell homogenate (cross-linking) or CHAPS-solubilized lysate (co-IP)
For the molecule B4, in test [3], the binding result is “binds”.
